Measured values taken from the supplement of paper PMC10849652.
Some of the results follow.

Sequences of proteins named here, by UniProt entry; tags and fusion partners are left off. A change or cut given only in a name is not applied to a line headed by its entry.
UniProt Q05209: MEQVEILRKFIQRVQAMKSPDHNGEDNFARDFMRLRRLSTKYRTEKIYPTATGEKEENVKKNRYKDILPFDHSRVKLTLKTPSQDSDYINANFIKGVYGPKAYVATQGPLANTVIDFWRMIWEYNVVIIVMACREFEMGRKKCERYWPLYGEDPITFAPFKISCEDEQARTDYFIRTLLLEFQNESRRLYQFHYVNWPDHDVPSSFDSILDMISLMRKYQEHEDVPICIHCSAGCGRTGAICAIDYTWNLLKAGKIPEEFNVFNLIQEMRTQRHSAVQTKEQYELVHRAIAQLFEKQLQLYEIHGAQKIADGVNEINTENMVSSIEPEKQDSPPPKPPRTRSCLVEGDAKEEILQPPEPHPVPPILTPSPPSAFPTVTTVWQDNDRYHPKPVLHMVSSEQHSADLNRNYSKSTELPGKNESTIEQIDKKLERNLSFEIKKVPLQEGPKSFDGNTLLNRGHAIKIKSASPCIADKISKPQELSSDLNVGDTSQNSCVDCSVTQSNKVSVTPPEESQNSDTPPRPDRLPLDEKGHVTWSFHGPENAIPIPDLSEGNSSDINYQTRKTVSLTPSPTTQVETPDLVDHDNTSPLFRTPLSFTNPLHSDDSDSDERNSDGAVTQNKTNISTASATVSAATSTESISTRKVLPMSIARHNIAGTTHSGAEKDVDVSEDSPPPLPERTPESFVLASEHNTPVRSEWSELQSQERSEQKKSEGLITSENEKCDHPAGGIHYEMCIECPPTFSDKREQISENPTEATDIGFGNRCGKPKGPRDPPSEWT
UniProt P62191: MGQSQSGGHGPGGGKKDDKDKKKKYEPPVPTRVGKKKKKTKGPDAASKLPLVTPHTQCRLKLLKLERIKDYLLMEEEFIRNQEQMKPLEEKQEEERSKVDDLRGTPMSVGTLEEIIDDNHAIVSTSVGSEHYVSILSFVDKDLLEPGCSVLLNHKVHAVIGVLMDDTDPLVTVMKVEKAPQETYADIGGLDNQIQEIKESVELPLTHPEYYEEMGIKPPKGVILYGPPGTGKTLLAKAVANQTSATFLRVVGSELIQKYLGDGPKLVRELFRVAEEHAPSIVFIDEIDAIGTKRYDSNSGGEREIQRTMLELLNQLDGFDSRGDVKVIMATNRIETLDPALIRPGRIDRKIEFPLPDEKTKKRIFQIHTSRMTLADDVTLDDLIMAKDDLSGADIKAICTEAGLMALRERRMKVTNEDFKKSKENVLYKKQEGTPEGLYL
UniProt Q8TB72: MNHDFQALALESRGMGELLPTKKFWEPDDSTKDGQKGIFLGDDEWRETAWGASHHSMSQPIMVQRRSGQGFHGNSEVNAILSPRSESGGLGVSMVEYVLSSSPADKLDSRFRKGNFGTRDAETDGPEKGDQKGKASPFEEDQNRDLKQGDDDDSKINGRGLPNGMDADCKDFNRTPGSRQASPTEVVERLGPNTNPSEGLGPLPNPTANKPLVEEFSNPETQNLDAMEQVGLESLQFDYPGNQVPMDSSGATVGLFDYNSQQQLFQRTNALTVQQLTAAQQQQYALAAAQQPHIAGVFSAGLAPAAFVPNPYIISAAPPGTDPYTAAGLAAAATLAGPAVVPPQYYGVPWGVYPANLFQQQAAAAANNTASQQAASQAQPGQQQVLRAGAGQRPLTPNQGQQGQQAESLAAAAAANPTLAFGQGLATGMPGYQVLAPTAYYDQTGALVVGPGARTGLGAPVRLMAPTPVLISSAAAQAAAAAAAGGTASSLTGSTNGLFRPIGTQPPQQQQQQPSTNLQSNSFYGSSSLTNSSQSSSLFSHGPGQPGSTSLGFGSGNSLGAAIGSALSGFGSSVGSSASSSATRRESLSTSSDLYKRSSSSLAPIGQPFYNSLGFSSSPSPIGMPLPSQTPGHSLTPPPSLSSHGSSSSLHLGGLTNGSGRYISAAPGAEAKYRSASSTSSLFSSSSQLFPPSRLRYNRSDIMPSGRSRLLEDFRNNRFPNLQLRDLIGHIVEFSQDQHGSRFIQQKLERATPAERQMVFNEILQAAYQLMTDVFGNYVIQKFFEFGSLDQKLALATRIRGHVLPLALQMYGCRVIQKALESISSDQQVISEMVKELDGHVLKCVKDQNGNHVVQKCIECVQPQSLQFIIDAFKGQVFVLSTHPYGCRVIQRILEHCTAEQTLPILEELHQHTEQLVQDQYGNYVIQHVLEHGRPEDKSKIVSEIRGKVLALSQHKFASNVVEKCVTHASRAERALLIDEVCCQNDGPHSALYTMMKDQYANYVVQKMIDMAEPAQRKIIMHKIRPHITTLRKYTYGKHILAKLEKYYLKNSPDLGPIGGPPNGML
UniProt Q96BW5: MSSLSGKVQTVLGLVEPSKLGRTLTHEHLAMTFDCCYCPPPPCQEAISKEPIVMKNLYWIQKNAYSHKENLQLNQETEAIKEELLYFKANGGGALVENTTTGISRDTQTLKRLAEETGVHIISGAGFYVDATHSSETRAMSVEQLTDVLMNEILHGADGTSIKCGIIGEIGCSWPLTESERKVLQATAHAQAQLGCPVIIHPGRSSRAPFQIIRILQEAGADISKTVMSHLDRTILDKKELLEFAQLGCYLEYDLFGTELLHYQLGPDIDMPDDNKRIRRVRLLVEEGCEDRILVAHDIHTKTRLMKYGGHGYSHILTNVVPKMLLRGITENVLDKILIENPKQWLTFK
UniProt Q9H974: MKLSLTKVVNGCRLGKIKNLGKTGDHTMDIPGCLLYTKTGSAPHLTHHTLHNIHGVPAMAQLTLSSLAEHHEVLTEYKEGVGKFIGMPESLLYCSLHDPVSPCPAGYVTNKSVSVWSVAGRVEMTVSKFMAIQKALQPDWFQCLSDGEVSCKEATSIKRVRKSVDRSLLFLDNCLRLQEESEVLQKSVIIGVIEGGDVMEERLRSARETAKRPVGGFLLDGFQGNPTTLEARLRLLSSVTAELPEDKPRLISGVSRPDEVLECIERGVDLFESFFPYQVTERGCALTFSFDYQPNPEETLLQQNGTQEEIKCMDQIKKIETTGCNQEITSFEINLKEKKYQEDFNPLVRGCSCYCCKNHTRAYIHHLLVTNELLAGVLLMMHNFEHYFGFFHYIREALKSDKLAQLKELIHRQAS
UniProt Q6GMV3: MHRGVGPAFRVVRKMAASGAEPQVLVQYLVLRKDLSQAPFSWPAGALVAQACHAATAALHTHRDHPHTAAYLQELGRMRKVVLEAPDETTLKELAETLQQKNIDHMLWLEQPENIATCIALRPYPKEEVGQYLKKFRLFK
UniProt Q7Z6K3: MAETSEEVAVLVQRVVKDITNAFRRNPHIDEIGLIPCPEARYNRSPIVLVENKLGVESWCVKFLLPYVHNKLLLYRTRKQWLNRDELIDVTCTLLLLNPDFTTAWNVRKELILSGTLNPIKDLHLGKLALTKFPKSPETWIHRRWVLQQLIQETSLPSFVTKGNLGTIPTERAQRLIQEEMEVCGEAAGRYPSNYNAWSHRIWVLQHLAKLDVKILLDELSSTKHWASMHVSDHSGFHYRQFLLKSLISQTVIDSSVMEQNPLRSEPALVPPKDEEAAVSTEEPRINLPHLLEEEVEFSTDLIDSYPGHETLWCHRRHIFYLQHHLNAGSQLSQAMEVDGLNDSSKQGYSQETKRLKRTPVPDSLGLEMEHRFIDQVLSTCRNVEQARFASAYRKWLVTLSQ
UniProt Q96PU8: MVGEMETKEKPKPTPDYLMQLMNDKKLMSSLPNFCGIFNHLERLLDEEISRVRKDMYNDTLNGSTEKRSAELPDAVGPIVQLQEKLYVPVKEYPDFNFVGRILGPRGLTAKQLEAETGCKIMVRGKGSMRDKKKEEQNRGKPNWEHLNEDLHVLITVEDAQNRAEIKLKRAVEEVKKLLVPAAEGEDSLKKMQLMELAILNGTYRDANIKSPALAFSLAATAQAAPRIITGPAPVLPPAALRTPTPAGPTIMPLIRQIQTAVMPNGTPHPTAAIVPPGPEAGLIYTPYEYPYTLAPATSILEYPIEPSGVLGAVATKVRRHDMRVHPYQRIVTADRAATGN
UniProt Q9H939: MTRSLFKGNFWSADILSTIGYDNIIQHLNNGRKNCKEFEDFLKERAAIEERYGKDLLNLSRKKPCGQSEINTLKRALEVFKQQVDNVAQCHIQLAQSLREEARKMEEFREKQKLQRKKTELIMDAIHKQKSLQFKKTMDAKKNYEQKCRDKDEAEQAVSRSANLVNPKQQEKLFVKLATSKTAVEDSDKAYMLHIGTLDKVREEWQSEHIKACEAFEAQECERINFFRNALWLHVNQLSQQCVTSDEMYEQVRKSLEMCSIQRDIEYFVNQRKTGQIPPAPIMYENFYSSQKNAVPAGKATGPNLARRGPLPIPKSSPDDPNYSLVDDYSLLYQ
UniProt P25786: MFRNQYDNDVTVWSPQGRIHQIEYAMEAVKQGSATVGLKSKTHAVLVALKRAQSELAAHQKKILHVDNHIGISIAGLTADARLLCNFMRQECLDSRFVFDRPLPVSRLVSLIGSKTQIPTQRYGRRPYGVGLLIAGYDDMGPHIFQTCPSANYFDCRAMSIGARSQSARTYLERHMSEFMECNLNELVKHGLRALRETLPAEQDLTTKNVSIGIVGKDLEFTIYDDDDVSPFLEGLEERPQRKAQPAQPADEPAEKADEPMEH
UniProt Q8TBF2: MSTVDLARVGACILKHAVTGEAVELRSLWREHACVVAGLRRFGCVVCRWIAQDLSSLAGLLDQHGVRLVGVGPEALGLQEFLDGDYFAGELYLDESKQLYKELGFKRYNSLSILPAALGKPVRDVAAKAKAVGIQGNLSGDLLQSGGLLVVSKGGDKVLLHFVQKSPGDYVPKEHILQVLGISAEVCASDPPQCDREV
UniProt P28066: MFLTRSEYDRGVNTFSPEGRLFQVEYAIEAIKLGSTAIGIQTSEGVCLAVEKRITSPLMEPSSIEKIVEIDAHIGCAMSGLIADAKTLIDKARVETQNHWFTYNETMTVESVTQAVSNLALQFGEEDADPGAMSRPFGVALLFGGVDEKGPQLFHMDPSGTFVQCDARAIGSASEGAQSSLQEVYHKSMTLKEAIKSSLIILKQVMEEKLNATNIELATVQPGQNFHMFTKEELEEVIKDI
UniProt O75475: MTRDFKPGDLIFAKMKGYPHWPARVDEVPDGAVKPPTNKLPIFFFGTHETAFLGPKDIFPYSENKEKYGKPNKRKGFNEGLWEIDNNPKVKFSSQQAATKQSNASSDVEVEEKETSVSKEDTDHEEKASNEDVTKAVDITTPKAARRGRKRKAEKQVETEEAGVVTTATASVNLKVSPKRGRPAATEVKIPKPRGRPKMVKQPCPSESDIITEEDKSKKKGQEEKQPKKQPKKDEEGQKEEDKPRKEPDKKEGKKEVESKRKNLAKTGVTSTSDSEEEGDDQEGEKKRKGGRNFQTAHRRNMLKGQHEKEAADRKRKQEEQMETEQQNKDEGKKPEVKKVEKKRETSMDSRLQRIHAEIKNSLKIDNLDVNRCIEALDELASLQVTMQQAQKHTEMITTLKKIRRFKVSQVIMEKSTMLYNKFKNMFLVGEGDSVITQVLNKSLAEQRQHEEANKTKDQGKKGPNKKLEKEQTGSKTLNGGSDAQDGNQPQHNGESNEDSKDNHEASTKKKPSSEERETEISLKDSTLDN
UniProt P28072: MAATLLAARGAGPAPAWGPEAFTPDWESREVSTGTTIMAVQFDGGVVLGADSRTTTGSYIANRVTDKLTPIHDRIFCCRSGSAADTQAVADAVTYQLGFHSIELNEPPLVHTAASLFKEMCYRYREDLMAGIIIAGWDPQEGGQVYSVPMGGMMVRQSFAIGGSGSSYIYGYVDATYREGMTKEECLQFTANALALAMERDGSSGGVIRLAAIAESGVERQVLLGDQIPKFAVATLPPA
UniProt P06737: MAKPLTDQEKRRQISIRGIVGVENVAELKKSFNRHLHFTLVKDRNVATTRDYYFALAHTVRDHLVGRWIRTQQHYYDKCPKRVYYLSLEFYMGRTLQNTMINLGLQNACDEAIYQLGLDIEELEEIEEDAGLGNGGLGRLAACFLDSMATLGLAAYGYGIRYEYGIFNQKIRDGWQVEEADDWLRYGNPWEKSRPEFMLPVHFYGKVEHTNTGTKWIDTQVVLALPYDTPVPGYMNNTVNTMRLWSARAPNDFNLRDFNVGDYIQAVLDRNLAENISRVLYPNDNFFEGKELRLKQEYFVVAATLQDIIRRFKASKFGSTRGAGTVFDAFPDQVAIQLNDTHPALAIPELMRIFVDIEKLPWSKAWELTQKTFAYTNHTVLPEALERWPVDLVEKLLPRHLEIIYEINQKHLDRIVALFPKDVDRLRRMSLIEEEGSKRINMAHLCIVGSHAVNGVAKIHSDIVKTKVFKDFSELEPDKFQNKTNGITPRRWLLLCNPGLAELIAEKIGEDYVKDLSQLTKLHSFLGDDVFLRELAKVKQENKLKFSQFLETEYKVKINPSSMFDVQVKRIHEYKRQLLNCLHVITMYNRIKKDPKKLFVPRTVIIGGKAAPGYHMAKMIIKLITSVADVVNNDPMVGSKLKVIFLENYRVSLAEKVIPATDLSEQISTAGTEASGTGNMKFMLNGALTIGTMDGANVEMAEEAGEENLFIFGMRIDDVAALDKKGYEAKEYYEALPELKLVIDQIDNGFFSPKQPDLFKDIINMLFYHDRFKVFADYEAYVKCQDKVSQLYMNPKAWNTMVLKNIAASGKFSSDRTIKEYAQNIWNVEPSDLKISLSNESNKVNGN

Compound: Cc1ccc(NC(=O)c2ccc(CN3CC[C@H](N(C)C)C3)c(C(F)(F)F)c2)cc1Nc1nccc(-c2cncnc2)n1 [bafetinib]
Experiment: log2 fold change, soluble protein after heating vs DMSO (PISA); higher = thermal stabilisation; K562 cells, 10 uM, 30 min; active = over 0.2 and 3.5 SD of the protein, either way, in both replicates (recomputed)
Procedure, shortened: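 Soluble protein was defined as the supernatant after 21,000xg for 90 min. It came from K562 cells at 2×10^6 cells/mL given 10 μM compound for 30 min, heated in aliquots for 3 min across 48°C-58°C, pooled, and extracted in PBS with 0.5% NP-40 at 4°C, and was quantified by TMTpro 16plex LC-MS/MS with equalised channel sums. Thermal stability against control samples, from duplicates, is reported as log2 fold change.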

log2 fold change, inactive:
PUS10 (UniProt Q3MIT2) 0.011
PTPN12 (UniProt Q05209) -0.052
PSMC1 (UniProt P62191) 0.065
PTPMT1 (UniProt Q8WUK0) -0.16
PTMS (UniProt P20962) 0.015
PUM2 (UniProt Q8TB72) -0.123
PWP2 (UniProt Q15269) 0.12
PTER (UniProt Q96BW5) -0.024
PSMD13 (UniProt Q9UNM6) 0.126
QTRT2 isoform 4 (UniProt Q9H974) -0.033
PSMC5 (UniProt P62195) 0.078
PTRHD1 (UniProt Q6GMV3) -0.067
PTDSS2 (UniProt Q9BVG9) -0.065
PTAR1 (UniProt Q7Z6K3) -0.09
QKI (UniProt Q96PU8) -0.001
PSTPIP2 (UniProt Q9H939) 0.022
PSMA1 isoform 2 (UniProt P25786) 0.043
PTK2B (UniProt Q14289) -0.024
PWP1 (UniProt Q13610) 0.218
PRXL2B isoform 3 (UniProt Q8TBF2) 0.015
PTDSS1 (UniProt P48651) -0.125
PSMA2 (UniProt P25787) 0.04
PSMD6 (UniProt Q15008) 0.115
PRTFDC1 (UniProt Q9NRG1) -0.026
PSMC2 (UniProt P35998) 0.081
PYCR3 (UniProt Q53H96) 0.004
PSMA5 (UniProt P28066) 0.042
PSAT1 (UniProt Q9Y617) -0.042
PSIP1 (UniProt O75475) 0.054
PSMD9 (UniProt O00233) -0.038
PXK (UniProt Q7Z7A4) -0.01
PSAP isoform 3 (UniProt P07602) -0.059
PSMB6 (UniProt P28072) 0.06
PYGL (UniProt P06737) -0.218

Two entries drawn at random from those above:
log2 fold change, inactive:
PSAP isoform 3 (UniProt P07602) -0.059
PTPN12 (UniProt Q05209) -0.052
